The assay has as its target myc-GABAB1b. The assay is described as follows: co-IP; COS-7 cells triple transfected with myc-GABAB1a or myc-GABAB1b, HA-GABAB2 and fibulin-2-Flag; extract in PBS with 1% CHAPS, 25 mM Hepes, 150 mM NaCl, pH 7.4; IP with anti-myc or anti-flag, Western blot. For orientation: In western blotting, separated proteins are transferred to a membrane and probed.

Results are given in words; binding and its absence hold for the method and conditions named. Binding seen in cells or lysates may run through a third protein. Where a sequence is shown, tags or fusion partners need not be part of it.

B1: Fibulin-2-Flag (protein, UniProt P37889 27-1221)
chain: VPWQDCTGAECPLLENCIEEALEPGACCATCVQQGCACEGYQYYDCVQGGFVDGRVPAGQSYFVDFGSTECSCPPGGGKISCQFMLCPELPPNCIEAVVVADSCPQCGQVGCVHSGRKYAAGHTVHLSSCRACHCPDAGGELICYQLPGCHGNFSDAEEGDSERQYEDPYSYDQEVAEAEATTAIVNEVQAGAEGPPAALGGGNLPPSSIRVTPWPVALPRPTAAAALGPPAPVQAKARRVTLDTEEDEEEEEEETLVTEPPTAGSPGRLDSLPTRSPARPGFPVQEKEAEAKAGPEENLIPDAQVTPRSVMQEGAAPLPRSGLAALSPSLATDSSSEDPVKPSDHPTLSTLPPDRAQVSPSPETPEEIPQHPQLLPRFRAEEDIDPNSVHSVPRGDLDGSTKDLIETCCAAGQQWAIDNDECQEIPENGAQSDICRIAQRQCCISYLKEKSCVAGVMGAKEGETCGAEDNDTCGVSLYKQCCDCCGLGLRVRAEGQSCESNPNLGYPCNHVMLSCCEGEEPLIVPEVRRPPEPEAAPRRVSEMEMASREALSLGTEAELPNSLPGDDQDECLMLPGELCQHLCINTVGSYRCACFPGFELQGDGRTCRPDRGAPQLDTARESAPRSESAQVSPNTIPLPVPQPNTCKDNGPCRQVCRVVGDTAMCSCFPGYAIMADGVSCEDQDECLMGTHDCSWKQFCVNTLGSFYCVNHTVLCAEGYILNAHRKCVDINECVTDLHTCTRAEHCVNTPGSFQCYKALTCEPGYVLTDGECTDVDECVTGTHNCQAGFSCQNTKGSFYCQARQRCMDGFLQDPEGNCVDINECTSLLEPCRSGFSCINTVGSYTCQRNPLVCGRGYHANEEGSECVDVNECETGVHRCGEGQLCYNLPGSYRCDCKPGFQRDAFGRTCIDVNECWVSPGRLCQHTCENTPGSYRCSCAAGFLLAADGKHCEDVNECETRRCSQECANIYGSYQCYCRQGYQLAEDGHTCTDIDECAQGAGILCTFRCVNVPGSYQCACPEQGYTMMANGRSCKDLDECALGTHNCSEAETCHNIQGSFRCLRFDCPPNYVRVSETKCERTTCQDITECQTSPARITHYQLNFQTGLLVPAHIFRIGPAPAFAGDTISLTITKGNEEGYFVTRRLNAYTGVVSLQRSVLEPRDFALDVEMKLWRQGSVTTFLAKMYIFFTTFAP
Take B1: the binding entry is given as “no binding”.

The record behind these values is publication PMC7378325.
